PubChem BioAssay AID1159594 | NIAID – 2016
Here is a random part of 756 deposited reagents. Over the whole deposit, 130 (17%) were called active. 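Active calls cover both falls and rises of reporter activity; each row reflects one siRNA, not a gene-level verdict.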 Unmarked entries are inactive. The numbers tell different reagents against one gene apart. Not stated in the record: the amount of reagent.

- Screen: 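Mapping how TLR pathway genes contribute to TLR2/6 signalling in macrophage-like cells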
- Cells: human THP-1 B5 reporter cells, PMA-differentiated into macrophage-like cells
- Knock-down reagent: single siRNA against human genes
- Timing: 48 to 72 hours after siRNA transfection; ligand exposure 4 hours
- Challenge: Pam2CSK4 (TLR2/6 agonist) stimulation for 4 hours before lysis; dose not given
- Measurement: 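TNF promoter reporter signal as firefly to renilla luciferase ratio, scaled per plate by median and MAD, given as robust z-score against negative controls, averaged across replicates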
- Scale: TNF reporter z-score: higher = stronger TNF promoter reporter activity
- Hit rule: 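Active when the mean z-score across replicates is at or beyond ±1.5 in either direction, matching a depositor grade of 50 or higher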
- Meaning of the calls: active = z-score beyond ±1.5 (either direction); inactive = z-score within ±1.5

IL1B #1 gave TNF reporter z-score, replicate mean 0.418.
Silencing of IL1B #2 gave: TNF reporter z-score, replicate mean -0.801.
After knock-down of IL1B #3, the screen gave TNF reporter z-score, replicate mean -1.41.
For IL1B #4, the entry reads TNF reporter z-score, replicate mean -0.57.
After knock-down of IL1B #5, the record shows TNF reporter z-score, replicate mean -1.66 (active).
Depletion of IL1B #6 came out at: TNF reporter z-score, replicate mean -0.916.
After knock-down of PIK3CA #1, the screen gave TNF reporter z-score, replicate mean 0.285.
Silencing of PIK3CA #2 resulted in: TNF reporter z-score, replicate mean -0.51.
For PIK3CA #3, the values are TNF reporter z-score, replicate mean -1.14.
Against PIK3CA #4 the deposit lists TNF reporter z-score, replicate mean -0.0584.
PIK3CA #5 gave TNF reporter z-score, replicate mean -0.717.
After knock-down of PIK3CA #6, the record shows TNF reporter z-score, replicate mean 0.464.
With knock-down of IFNAR2 #1 the results were TNF reporter z-score, replicate mean -0.0627.
Knock-down of IFNAR2 #2 came out at: TNF reporter z-score, replicate mean -1.05.
IFNAR2 #3 gave TNF reporter z-score, replicate mean -2.66 (active).
IFNAR2 #4 gave TNF reporter z-score, replicate mean -0.338.
With knock-down of IFNAR2 #5, the record shows TNF reporter z-score, replicate mean 0.717.
With knock-down of IFNAR2 #6, the record shows TNF reporter z-score, replicate mean -0.751.
With knock-down of JUN #1 the results were TNF reporter z-score, replicate mean -1.8 (active).
Silencing of JUN #2 gave: TNF reporter z-score, replicate mean -3.33 (active).
After knock-down of JUN #3, the screen gave TNF reporter z-score, replicate mean -0.75.
JUN #4 showed TNF reporter z-score, replicate mean -0.219.
After knock-down of JUN #5, the record shows TNF reporter z-score, replicate mean -1.16.
For JUN #6 the deposit lists TNF reporter z-score, replicate mean 0.709.
With knock-down of UBE2V1 #1 the results were TNF reporter z-score, replicate mean 0.927.
Silencing of UBE2V1 #2 gave: TNF reporter z-score, replicate mean 0.0274.
UBE2V1 #3 showed TNF reporter z-score, replicate mean 0.00676.
Knock-down of UBE2V1 #4 came out at: TNF reporter z-score, replicate mean -1.2.
With knock-down of UBE2V1 #5, the screen gave TNF reporter z-score, replicate mean -0.000804.
UBE2V1 #6 gave TNF reporter z-score, replicate mean -0.55.

2 successive reagents from above, for reference:
IL1B #2 | TNF reporter z-score, replicate mean: -0.801
IL1B #3 | TNF reporter z-score, replicate mean: -1.41
